The values that follow come from publication PMC11701798.

Chains of the proteins cited; added tags and fusions are not shown.
UniProt P30186: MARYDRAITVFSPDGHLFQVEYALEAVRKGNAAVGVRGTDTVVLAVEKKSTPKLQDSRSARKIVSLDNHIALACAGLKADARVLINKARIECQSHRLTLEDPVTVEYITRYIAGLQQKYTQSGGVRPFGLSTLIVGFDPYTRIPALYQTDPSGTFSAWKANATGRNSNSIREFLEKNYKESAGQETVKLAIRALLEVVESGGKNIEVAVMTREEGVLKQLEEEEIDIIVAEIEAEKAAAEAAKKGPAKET
UniProt Q39255: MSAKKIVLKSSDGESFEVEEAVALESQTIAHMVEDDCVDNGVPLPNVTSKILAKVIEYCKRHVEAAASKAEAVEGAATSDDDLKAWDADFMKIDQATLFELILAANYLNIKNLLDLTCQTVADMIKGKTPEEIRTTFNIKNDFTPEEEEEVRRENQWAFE
UniProt Q9MAT0: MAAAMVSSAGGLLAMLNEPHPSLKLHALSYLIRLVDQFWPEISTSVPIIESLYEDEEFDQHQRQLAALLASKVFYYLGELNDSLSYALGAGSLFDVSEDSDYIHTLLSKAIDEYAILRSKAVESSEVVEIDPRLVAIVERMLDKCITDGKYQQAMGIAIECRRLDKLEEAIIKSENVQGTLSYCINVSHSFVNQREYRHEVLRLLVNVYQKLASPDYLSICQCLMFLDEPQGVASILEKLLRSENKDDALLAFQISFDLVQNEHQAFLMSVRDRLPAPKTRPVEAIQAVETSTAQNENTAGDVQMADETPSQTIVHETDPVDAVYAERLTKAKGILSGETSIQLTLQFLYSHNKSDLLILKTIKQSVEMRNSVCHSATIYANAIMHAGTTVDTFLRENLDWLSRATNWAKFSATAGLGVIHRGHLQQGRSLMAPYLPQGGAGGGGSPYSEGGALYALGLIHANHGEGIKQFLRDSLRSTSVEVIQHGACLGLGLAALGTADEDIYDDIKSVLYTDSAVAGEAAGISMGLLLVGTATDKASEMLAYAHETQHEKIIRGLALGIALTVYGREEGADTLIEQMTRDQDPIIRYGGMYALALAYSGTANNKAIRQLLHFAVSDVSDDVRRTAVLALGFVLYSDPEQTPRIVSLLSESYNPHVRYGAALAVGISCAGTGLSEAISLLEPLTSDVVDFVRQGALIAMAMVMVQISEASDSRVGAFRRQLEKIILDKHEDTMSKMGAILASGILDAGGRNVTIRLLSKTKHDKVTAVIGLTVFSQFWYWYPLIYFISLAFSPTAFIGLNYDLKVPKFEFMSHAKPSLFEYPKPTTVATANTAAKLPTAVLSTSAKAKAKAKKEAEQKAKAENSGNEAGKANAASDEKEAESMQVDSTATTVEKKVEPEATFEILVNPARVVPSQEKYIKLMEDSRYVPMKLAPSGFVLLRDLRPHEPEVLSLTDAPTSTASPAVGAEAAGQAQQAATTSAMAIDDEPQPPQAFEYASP
UniProt Q8GY23: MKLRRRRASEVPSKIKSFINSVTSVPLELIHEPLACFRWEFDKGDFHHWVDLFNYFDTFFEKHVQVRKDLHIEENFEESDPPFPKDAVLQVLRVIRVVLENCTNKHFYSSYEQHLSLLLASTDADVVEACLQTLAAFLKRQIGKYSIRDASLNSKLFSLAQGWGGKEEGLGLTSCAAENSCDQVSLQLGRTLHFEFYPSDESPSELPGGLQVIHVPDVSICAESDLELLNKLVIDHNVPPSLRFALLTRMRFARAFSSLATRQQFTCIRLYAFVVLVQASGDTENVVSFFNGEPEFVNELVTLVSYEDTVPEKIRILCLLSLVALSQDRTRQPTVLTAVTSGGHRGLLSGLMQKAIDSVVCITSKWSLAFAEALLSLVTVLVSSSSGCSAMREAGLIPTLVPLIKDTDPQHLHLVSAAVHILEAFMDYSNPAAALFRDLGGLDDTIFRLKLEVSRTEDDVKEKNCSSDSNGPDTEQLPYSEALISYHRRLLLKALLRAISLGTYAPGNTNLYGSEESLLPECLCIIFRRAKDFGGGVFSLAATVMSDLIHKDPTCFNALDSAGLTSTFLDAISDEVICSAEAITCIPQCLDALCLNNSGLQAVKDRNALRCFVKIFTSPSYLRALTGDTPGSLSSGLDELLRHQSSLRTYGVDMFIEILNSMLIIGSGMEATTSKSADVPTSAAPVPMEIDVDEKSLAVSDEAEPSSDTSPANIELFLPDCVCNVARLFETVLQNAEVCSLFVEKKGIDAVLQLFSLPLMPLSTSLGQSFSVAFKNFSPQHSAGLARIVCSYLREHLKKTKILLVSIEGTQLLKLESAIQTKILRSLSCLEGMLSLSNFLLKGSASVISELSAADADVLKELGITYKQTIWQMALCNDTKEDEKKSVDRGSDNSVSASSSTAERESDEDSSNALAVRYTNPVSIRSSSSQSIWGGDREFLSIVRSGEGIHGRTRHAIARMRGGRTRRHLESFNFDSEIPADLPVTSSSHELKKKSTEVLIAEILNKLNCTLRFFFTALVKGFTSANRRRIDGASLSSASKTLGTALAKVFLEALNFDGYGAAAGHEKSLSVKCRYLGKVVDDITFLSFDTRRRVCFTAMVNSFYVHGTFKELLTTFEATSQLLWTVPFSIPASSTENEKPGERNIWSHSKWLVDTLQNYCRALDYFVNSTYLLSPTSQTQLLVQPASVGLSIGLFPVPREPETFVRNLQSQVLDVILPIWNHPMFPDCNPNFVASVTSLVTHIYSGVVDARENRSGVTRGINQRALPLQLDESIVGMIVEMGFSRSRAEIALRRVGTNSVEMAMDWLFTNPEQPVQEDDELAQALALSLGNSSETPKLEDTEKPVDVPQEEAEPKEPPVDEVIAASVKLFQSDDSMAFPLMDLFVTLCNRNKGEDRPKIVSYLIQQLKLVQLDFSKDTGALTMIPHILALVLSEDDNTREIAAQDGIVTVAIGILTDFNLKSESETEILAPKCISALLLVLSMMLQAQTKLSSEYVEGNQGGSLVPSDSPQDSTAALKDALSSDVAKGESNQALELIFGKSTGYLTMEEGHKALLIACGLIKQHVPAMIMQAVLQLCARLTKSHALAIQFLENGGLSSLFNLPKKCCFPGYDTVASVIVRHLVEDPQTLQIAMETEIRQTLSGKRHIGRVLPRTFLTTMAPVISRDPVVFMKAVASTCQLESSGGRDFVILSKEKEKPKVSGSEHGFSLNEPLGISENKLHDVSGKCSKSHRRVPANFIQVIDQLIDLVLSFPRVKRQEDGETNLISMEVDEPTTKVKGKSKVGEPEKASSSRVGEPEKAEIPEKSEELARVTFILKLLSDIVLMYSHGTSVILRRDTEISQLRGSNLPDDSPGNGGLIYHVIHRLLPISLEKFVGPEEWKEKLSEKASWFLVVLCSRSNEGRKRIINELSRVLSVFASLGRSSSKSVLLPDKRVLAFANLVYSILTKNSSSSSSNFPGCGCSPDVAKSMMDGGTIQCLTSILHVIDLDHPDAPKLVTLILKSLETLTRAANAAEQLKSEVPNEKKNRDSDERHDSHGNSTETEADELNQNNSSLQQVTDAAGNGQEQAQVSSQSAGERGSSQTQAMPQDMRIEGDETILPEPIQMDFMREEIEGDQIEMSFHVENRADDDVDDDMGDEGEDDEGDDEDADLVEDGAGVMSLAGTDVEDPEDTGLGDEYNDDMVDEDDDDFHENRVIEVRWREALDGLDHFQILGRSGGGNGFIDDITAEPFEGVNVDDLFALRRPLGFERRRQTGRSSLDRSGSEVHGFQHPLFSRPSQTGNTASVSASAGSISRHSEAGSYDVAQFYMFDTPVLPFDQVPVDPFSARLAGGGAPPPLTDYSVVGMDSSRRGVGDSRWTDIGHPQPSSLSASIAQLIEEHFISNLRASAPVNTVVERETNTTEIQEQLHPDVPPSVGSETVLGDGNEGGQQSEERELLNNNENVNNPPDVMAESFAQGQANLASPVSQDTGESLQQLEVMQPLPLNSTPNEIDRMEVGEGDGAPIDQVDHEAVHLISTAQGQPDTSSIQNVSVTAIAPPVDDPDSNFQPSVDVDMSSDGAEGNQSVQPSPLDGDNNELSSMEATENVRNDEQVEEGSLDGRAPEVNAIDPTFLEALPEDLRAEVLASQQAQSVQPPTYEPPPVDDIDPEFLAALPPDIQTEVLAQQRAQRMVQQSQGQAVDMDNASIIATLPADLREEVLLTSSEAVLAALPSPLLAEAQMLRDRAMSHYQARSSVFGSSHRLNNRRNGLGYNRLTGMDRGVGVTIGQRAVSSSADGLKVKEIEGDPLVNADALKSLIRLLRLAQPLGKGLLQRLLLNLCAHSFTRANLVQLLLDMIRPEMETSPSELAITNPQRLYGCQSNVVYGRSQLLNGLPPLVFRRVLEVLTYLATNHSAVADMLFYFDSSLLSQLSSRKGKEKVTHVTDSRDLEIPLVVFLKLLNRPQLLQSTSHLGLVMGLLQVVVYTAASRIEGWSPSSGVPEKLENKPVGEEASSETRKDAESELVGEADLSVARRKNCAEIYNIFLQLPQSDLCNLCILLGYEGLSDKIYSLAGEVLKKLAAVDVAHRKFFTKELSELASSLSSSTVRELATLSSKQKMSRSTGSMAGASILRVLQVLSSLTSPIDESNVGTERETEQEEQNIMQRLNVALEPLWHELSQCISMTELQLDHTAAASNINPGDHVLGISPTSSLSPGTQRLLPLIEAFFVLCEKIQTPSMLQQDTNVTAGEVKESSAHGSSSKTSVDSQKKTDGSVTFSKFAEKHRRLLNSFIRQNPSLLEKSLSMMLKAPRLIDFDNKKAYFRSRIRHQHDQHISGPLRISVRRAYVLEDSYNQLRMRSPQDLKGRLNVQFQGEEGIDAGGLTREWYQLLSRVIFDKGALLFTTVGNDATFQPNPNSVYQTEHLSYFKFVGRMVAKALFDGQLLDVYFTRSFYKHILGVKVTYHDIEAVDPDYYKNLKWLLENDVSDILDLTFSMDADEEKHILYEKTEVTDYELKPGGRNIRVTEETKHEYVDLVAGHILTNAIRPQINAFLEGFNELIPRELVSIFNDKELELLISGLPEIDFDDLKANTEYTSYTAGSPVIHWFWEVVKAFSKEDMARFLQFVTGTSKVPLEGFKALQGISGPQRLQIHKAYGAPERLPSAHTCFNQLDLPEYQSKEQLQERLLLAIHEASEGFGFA

No constants are given. Whether binding was seen depends on the method and setting. In cells and extracts the contact can be indirect. These calls come from enrichment with a bait or labelling near it, and not all partners need be listed. Where a sequence is shown, tags or fusion partners need not be part of it.

T1: ACS7‐GFP‐His (Arabidopsis thaliana) (UniProt Q9STR4)
T1 sequence: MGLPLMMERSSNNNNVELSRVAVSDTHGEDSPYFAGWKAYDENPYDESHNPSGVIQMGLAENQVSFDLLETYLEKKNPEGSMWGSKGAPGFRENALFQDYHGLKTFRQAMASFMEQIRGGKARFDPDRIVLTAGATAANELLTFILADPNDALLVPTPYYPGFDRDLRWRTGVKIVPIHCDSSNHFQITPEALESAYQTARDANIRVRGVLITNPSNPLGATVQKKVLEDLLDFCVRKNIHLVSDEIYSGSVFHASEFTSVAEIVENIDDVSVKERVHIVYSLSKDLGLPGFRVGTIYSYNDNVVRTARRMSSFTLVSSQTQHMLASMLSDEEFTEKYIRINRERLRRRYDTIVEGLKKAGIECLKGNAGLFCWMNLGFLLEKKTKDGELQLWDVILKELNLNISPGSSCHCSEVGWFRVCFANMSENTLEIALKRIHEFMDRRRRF

B1: ubiquitin‐specific protease UBP6 (enzyme, UniProt Q949Y0 1-482)
chain: MPTVSVKWQKKVLDGIEIDVSLPPYVFKAQLYDLTGVPPERQKIMVKGGLLKDDGDWAAIGVKDGQKLMMMGTADEIVKAPEKAIVFAEDLPEEALATNLGYSAGLVNLGNTCYMNSTVQCLKSVPELKSALSNYSLAARSNDVDQTSHMLTVATRELFGELDRSVNAVSPSQFWMVLRKKYPQFSQLQNGMHMQQDAEECWTQLLYTLSQSLKAPTSSEGADAVKALFGVNLQSRLHCQESGEESSETESVYSLKCHISHEVNHLHEGLKHGLKGELEKTSPALGRTALYVKESLIDSLPRYLTVQFVRFFWKRESNQKAKILRKVDYPLVLDIFDLCSEDLRKKLEAPRQKLREEEGKKLGLQTSAKSGSKDSDVKMTDAEASANGSGESSTVNPQEGTSSEKETHMTGIYDLVAVLTHKGRSADSGHYVAWVKQESGKWIQYDDDNPSMQREEDITKLSGGGDWHMAYITMYKARFVSM
B2: RPN1A, 26S proteasome regulatory subunit S2 1A (protein, UniProt Q9SIV2 1-891)
chain: MAPTQDPNSVGGGAKKDEATLKVPSKDPKKKDEKKDEDLSEEDLELKQNLELYVERVQDPNPELQKAALESMRQEIRASTSSMTSVPKPLKFLRPHYGTLKAFHETMADSDLKKYLSDILSVLALTMSADGERESLRFRLIGTEGDIGSWGHEYVRNLAGEIAQEYTKRQSEEASIDDLMELVQQIVAFHMKHNAETEAVDLLMDVEDLDLLLEHVDKTNFKRTCNYLTSAARYLPGPDDMLVLDISYMIYMKFEEYPNALQIALFLDNTQYVKQVFTSCTDLLKKKQFCYMIARHGITFELDDEMVADDDDREALQDIVNNTKLSEGYLTLARDIEVMEAKTPEDIYKAHLLDGRASSGASVDSARQNLAATFVNAFVNAGFGQDKLMTVPSDSTTGSSGNWLFKNKEHGKTSAAASLGMIQLWDVDSGLSQLDKYFHSNDNPIIAGALLGVGIVNCGIKNDCDPALALLGDYIDKEDSSVRIGAIMGLGISYAGSQNDQIRNKLSPILNDAKAPLDVIAFASLSLGMIYVGSCNEEVAQSIIFALMDRSEAELGDALTRFLPLGLGLLYLGKQESVEATAEVSKTFNEKIRKYCDMTLLSCAYAGTGNVLKVQDLLAQCGEHLEKGDIHQGPAVLGLAMVAMSEELGVDMEIRSLERMLQYGEQNIRRAVPLALGLLCISNPKVTVMDTLSRLSHDTDSEVAMSAIISLGLIGAGTNNARIAGMLRNLSSYYYKDMSLLFCVRIAQGLVHMGKGLLTLSPFHSERFLLSPTALAGIVTLLHACLDMKPIILGKYHYVLYFLVLAMQPRMMLTVDENLKPLSVPVRVGQAVDVVGQAGRPKTITGFQTHSTPVLLAAGERAELATDKYIPLSPILEGFIILKENPDYREE
B3: ubiquitin‐specific protease UBP4 (enzyme, UniProt Q8LAM0 1-365)
chain: MGAAGSKLEKALGDQFPEGERYFGFENFGNTCYCNSVLQALYFCAPFREQLLEHYANNKADAEENLLTCLADLFSQISSQKKKTGVIAPKRFVQRLKKQNELFRSYMHQDAHEFLNYLLNELVEILEKETQATKADNETSSSPEKIANVLKAPLANGVHKEPIVTWVHKIFQGILTNETRCLRCETVTARDETFLDLSLDIEQNSSITSCLKNFSSTETLHAEDKFFCDKCCSLQEAQKRMKIKKPPHILVIHLKRFKYMEQLGRYKKLSYRVVFPLELKLSNTVDEYVDIEYSLFAVVVHVGSGPNHGHYVSLVKSHNHWLFFDDESVEIIEESAVQTFFGSSQEYSSNTDHGYILLYESLGTR
B4: UBA1, ubiquitin‐activating enzyme 1 (enzyme, UniProt P93028 1-1080)
chain: MLHKRASEANDKNDNTIIGSDLASSKKRRIDFTESSSDKSSSILASGSSRGFHGDSVVQQIDMAFGNSNRQEIDEDLHSRQLAVYGRETMRRLFASNVLISGMHGLGAEIAKNLILAGVKSVTLHDERVVELWDLSSNFVFSEDDVGKNRADASVQKLQDLNNAVVVSSLTKSLNKEDLSGFQVVVFSDISMERAIEFDDYCHSHQPPIAFVKADVRGLFGSVFCDFGPEFAVLDVDGEEPHTGIIASISNENQAFISCVDDERLEFEDGDLVVFSEVEGMTELNDGKPRKIKSTRPYSFTLDEDTTNYGTYVKGGIVTQVKQPKLLNFKPLREALKDPGDFLFSDFSKFDRPPLLHLAFQALDHFKAEAGRFPVAGSEEDAQKLISIATAINTGQGDLKVENVDQKLLRHFSFGAKAVLNPMAAMFGGIVGQEVVKACSGKFHPLFQFFYFDSVESLPSEPVDSSDFAPRNSRYDAQISVFGAKFQKKLEDAKVFTVGSGALGCEFLKNLALMGVSCGSQGKLTVTDDDIIEKSNLSRQFLFRDWNIGQAKSTVAASAAAVINPRFNIEALQNRVGAETENVFDDAFWENLTVVVNALDNVNARLYVDSRCLYFQKPLLESGTLGTKCNTQSVIPHLTENYGASRDPPEKQAPMCTVHSFPHNIDHCLTWARSEFEGLLEKTPAEVNAYLSSPVEYTNSMMSAGDAQARDTLERIVECLEKEKCETFQDCLTWARLRFEDYFVNRVKQLIYTFPEDAATSTGAPFWSAPKRFPRPLQYSSSDPSLLNFITATAILRAETFGIPIPEWTKNPKEAAEAVDRVIVPDFEPRQDAKIVTDEKATTLTTASVDDAAVIDDLIAKIDQCRHNLSPDFRMKPIQFEKDDDTNYHMDVIAGLANMRARNYSIPEVDKLKAKFIAGRIIPAIATSTAMATGLVCLELYKVLDGGHKVEAYRNTFANLALPLFSMAEPLPPKVVKHRDMAWTVWDRWVLKGNPTLREVLQWLEDKGLSAYSISCGSCLLFNSMFTRHKERMDKKVVDLARDVAKVELPPYRNHLDVVVACEDEDDNDVDIPLVSIYFR
B5: CSN4, Proteasome component (PCI) domain protein AT5G42970.1 (protein, UniProt Q8L5U0 1-397)
chain: MDEALTNASAIGDQRQKIEQYKLILSSVLSSNDLLQAQRFIDHILSDDVPLVVSRQLLQSFAQELGRLEPETQKEIAQFTLTQIQPRVVSFEEQALVIREKLAGLYESEQEWSKAAQMLSGIDLDSGMRAVDDNFKLSKCIQIARLYLEDDDAVNAEAFINKASFLVSNSQNEVLNLQYKVCYARILDMKRKFLEAALRYYGISQIEQRQIGDEEIDENALEQALSAAVTCTILAGAGPQRSRVLATLYKDERCSKLKIYPILQKVYLERILRRPEIDAFSEELRPHQKASLPDKSTVLDRAMIEHNLLSASKLYTNIRFDELGTLLAIDPRKAEKIAANMIGQDRMRGSIDQEEAVIHFEDDVEELQQWDQQISGLCQALNDILDGMAKKGMSVPV
B6: Proteasome component (PCI) domain protein AT4G19006.1 (protein, UniProt Q8GYA6 1-386)
chain: MAALQYLESQKNAHPELGEWYNSLADLYQKKLWHQLTLKLEQFIALSVFQAGDALIQLYNNFITDFETRINLLKLAHFAVVVSRQYPEKEAAVSYLEGVIEKLKATKESRINEPISYIETQIALFKLEQGDQKECKKILDDGKSLLDSMTDIDPSVYANFFWVSSQYHKVRQEFSEFYKNALLYLAYTSVDSLSESFKLDLAFDLSLSALLGENIYNFGELLAHPILKSLLGTNVEWLYHILQAFNHGDLVQYQELCRVHNASLSAQPALVENEKKLLEKINILCLIEIIFSRPAEDRTIPLSVIAERTKLSIEDVEHLLMKSLSVHLIEGILDQVNGTVYVSWAQPRVLGIPQIKSLRDQLDSWVDKVHTTLLSVEAETPDLVAA
B7: CSN3, Proteasome component (PCI) domain protein AT5G14250.1 (protein, UniProt Q8W575 1-429)
chain: MIGAVNSVEAVITSIQGLSGSPEDLSALHDLLRGAQDSLRAEPGVNFSTLDQLDASKHSLGYLYFLEVLTCGPVSKEKAAYEIPIIARFINSCDAGQIRLASYKFVSLCKILKDHVIALGDPLRGVGPLLNAVQKLQVSSKRLTALHPDVLQLCLQAKSYKSGFSILSDDIVEIDQPRDFFLYSYYGGMICIGLKRFQKALELLYNVVTAPMHQVNAIALEAYKKYILVSLIHNGQFTNTLPKCASTAAQRSFKNYTGPYIELGNCYNDGKIGELEALVVARNAEFEEDKNLGLVKQAVSSLYKRNILRLTQKYLTLSLQDIANMVQLGNAKEAEMHVLQMIQDGQIHALINQKDGMVRFLEDPEQYKSSEMIEIMDSVIQRTIGLSKNLLAMDESLSCDPLYLGKVGRERQRYDFGDDFDTVPQKFSM
B8: ubiquitin‐specific protease UBP14 (enzyme, UniProt Q8L6Y1 1-797)
chain: MELLRSNLSRVQIPEPTHRIYKHECCISFDTPRSEGGLFVDMNSFLAFGKDYVSWNYEKTGNPVYLHIKQTRKSIPEDRPLKKPTLLAIGVDGGFDNNEPEYEESYSIVILPDFVSLPFPSVELPEKVRIAVDTVVNAVGAERKEQVAAWTAEKKLISEHALTLQQIKSGIVIPPSGWKCSKCDKTENLWLNLTDGMILCGRKNWDGTGGNNHAVEHYKETAYPLAVKLGTITADLEAADVYSYPEDDSVLDPLLAEHLAHFGIDFSSMQKTEMTTAERELDQNTNFDWNRIQESGKELVPVFGPGYTGLVNLGNSCYLAATMQIVFSTHSFISRYFSHQSLKMAFEMAPADPTLDLNMQLTKLGHGLLSGKYSMPATQKDATTGDPRQEGIPPRMFKNVIAASHAEFSSMRQQDALDFFLHLVGKVERASNTTPDLDPSRSFKFGIEEKILCPSGKVGYNKREDCILSLNIPLHEATNKDELEAFHKQKAGKGLEENDMRSSDEIVRPRVPLEACLANFASSEPIEDYYSSALKGMTTAIKTTGLTSFPDYLVLHMRKFVMEEGWVPKKLDVYIDVPDVIDISHMRSKGLQPGEELLPDGVPEEVMESAQPVANEEIVAQLVSMGFSQLHCQKAAINTSNAGVEEAMNWLLSHMDDPDIDAPISHQTSDIDQSSVDTLLSFGFAEDVARKALKASGGDIEKATDWVFNNPNASVSDMDVSSSNSAQTPAQSGLPDGGGKYKLFGIVSHMGTSVHCGHYVAHILKEGRWVIFNDDKVGISTDPPKDMGYVYFFQRLD

The target of this experiment is T1, ACS7‐GFP‐His (Arabidopsis thaliana). The experiment can be described thus: affinity purification with mass spectrometry; ACS7-GFP-His overexpressed in WT Col-0 Arabidopsis mesophyll protoplasts treated with MG132; lysate (10 mM Tris-HCl pH 7.5, 150 mM NaCl, 0.5% Nonidet P40) on GFP-trap agarose overnight at 4°C; LC-MS/MS; proteins found in non-transformed control protoplasts removed; triplicate.
With “20S proteasome alpha subunit PAD1 (from UniProt P30186 1-250)”, the binding entry is on record as “binds”. On to “SKP1, S phase kinase‐associated protein 1 (from UniProt Q39255 1-160)”, for which the binding entry is “binds”.

Take “26S proteasome regulatory complex, non‐ATPase subcomplex, Rpn2/Psmd1 subunit (AT1G04810.1) (from UniProt Q9MAT0 1-1001)”: the binding result is on record as “binds”. Regarding “UPL2, ubiquitin‐protein ligase 2 (from UniProt Q8H0T4 1-3658) (enzyme)”, the binding entry is on record as “binds”. With “Proteasome component (PCI) domain protein AT3G02200.2” the entry was “binds”; with “UPL1, ubiquitin‐protein ligase 1 (from UniProt Q8GY23 1-3681) (enzyme)”, “binds”. Turning to B1, the binding entry was “binds”.

Regarding B2, the binding result is on record as “binds”. With B3 the entry was “binds”; with B4, “binds”.

Consider B5, for which the binding entry was “binds”.

For the molecule B6, the binding result was “binds”. With B7 the entry was “binds”; with B8, “binds”.
